According to paper PMC12040169 (PLOS Biology, 2025):
The other results are listed elsewhere or left out.

What follows are compounds tested on T1, CTL2-GFP (C. trachomatis L2/434/Bu, GFP-expressing). Conditions: bulk GFP, single well; 28.5 h, 10 µM; inhibitor.
T1 construct: L2/434/Bu, GFP-expressing
Parameters: species or system HeLa; Intracellular C. trachomatis growth in HeLa cells, bulk GFP fluorescence relative to DMSO

SMILES	% of control remaining [%]
Cc1ccc(C(=O)NC2CCN(C(=O)Nc3cc(Cl)ccc3F)CC2)s1 [CBK305243]	110.569
Nc1nnc(SCC(=O)NC23CC4CC(CC(C4)C2)C3)s1 [CBK267417]	136.532
O=C(Cc1ccccn1)N1CCC(c2cccc(Cc3ccc(C(F)(F)F)cc3)n2)CC1 [CBK286224]	104.5
O=C1CC2(CCN(C(=O)C3CCCC3)CC2)Oc2ccc(F)cc21 [CBK283686]	151.168
CCC1CCCCN1C(=O)c1cc(C)nc(Cl)c1 (stereo not drawn) [CBK076748]	102.267
Cc1cc(C)n(CCCNC(=O)c2ncoc2-c2ccc(F)cc2)n1 [CBK282357]	128.243
CC(=O)N1CCN(c2ccc(OCCO)cc2)CC1 [CBK001978]	154.778
Cc1cc(OCc2nnc(SCC(=O)Nc3ccc(I)cc3)n2C)ccc1Cl [CBK268600]	124.947
COC(=O)CN1CCCC[C@H]2CN(C(=O)Cc3ccsc3)C[C@H]21 [CBK285509]	109.001
Cc1nc(CN2CCCC3(CCN(C(=O)c4cc(F)c(F)cc4F)C3)C2)cs1 (stereo not drawn) [CBK132026]	116.292
CC(C)(N)CNC(=O)c1cnc2cc(Cl)ccc2c1O [CBK107360]	153.404
S=c1nccc(N2CCC(Cc3ccccc3)CC2)[nH]1 [CBK288361]	95.908
C=CCNC(=O)N[C@H]1CCN2C(=O)c3ccc(Cl)cc3NC(=O)[C@@H]2C1 [CBK289569]	100.212
COc1ccc([C@]23CN(C)C[C@H]2CCN(C(=O)c2cccc(Br)c2)C3)cc1OC [CBK075111T]	106.637
CCN1C(=O)C2(CC(=O)N(CC(=O)OC)C2=O)c2cc(Cl)ccc21 (stereo not drawn) [CBK075234]	182.62
CN(C(=O)COC(=O)c1cc(-c2ccco2)nc2ccccc12)C1(C#N)CCCCC1 [CBK295591]	134.538
Cc1ccc(CC(=O)N2CCC(Cc3ccccc3-c3ccccc3)(C(N)=O)CC2)cc1 [CBK285740]	104.053
COc1ccc(/C(N)=N/OC(=O)C(C)Oc2ccc(C(C)(C)C)cc2)cc1OC (stereo not drawn) [CBK267378]	107.345
Cn1c(=O)oc2ccc(C(=O)Nc3cccc(-c4ccc(F)cc4)c3)cc21 [CBK286023]	111.855
CN(C)C(=O)Cn1nc(-c2cccc(-n3cccc3)c2)oc1=O [CBK283759]	88.6144

SMILES	% of control remaining [%]
CN(CC(=O)Nc1ccc([N+](=O)[O-])cc1)S(=O)(=O)c1ccc2ccccc2c1 [CBK267422]	133.459
COCCOC(=O)N1CCC(C(=O)NC(c2ccc(Cl)cc2)c2cccs2)CC1 (stereo not drawn) [CBK059702]	84.5749
Fc1cccc(-c2nc3cnccn3c2NC2CCCC2)c1 [CBK283780]	137.057
OCc1ccc(-c2nccnc2NCc2ccccn2)cc1 [CBK037088]	146.008
CC1=CC(C)C(CN2CC34C=CC(O3)C(C(=O)O)C4C2=O)C(C)C1 (stereo not drawn) [CBK287005]	129.676
CCC(CC(=O)NCc1c(C)n[nH]c1C)c1c[nH]c2ccccc12 (stereo not drawn) [CBK282651]	124.797
O=C(Nc1ccc(Br)c2cccnc12)c1ccc(COc2ccccc2)cc1 [CBK266062]	143.591
Nc1cccc(Sc2cccc(C(F)(F)F)n2)c1 [CBK115239]	122.137
Cc1ccc(NC(=O)N(C)C2CCN(C)C2)cc1 (stereo not drawn) [CBK156023]	76.0158
Cc1ccccc1-c1ocnc1C(=O)NCc1ccco1 [CBK282408]	137.929
Cn1c(N2CC[C@H](O)C2)nc2cc(C(=O)NC3CCCC3)ccc21 [CBK306779]	121.114
CC(CC(=O)O)CC(=O)NNc1ncc(Cl)cc1Cl (stereo not drawn) [CBK264398]	114.105
CC(=O)Nc1ccc(S(=O)(=O)N2CCN(S(=O)(=O)N(C)C)CC2)cc1 [CBK266545]	162.376
CCn1ncc(CN(C)C(=O)CCN2CCCCCC2=O)c1C [CBK306718]	113.766
Cc1ccc(NC(=O)c2cnc3scc(C)n3c2=O)cc1 [CBK287454]	110.942
CC(C)c1cc(C(=O)NCCN2CCc3ccccc32)n(C)n1 [CBK282685]	104.865
CC(=O)Nc1ccc(/C=N/NC(=O)c2nnn(-c3nonc3N)c2-c2ccccc2)cc1 [CBK262790]	115.939
CC(Oc1ccccc1)C(=O)N1CCN(CCO)CC1 (stereo not drawn) [CBK267428]	130.519
COc1ccc(N2CCN(/C(=N/S(=O)(=O)c3ccccc3)Nc3nc(C)cc(C)n3)CC2)cc1 [CBK266750]	128.04

Ordered by SMILES length (largest number first): part of the list above
SMILES	% of control remaining [%]
COc1ccc(N2CCN(/C(=N/S(=O)(=O)c3ccccc3)Nc3nc(C)cc(C)n3)CC2)cc1 [CBK266750]	128.04
CCn1ncc(CN(C)C(=O)CCN2CCCCCC2=O)c1C [CBK306718]	113.766
CC(Oc1ccccc1)C(=O)N1CCN(CCO)CC1 (stereo not drawn) [CBK267428]	130.519
